These are yes or no findings as the source states them, for the method shown. In cells and extracts the contact can be indirect. Some results given as binding are weak or reduced against the parent protein; the word gives no strength. For some assays here: Sequences can lack the tags named with a protein.
T1: Ubiquitin specific protease 22 (USP22), endogenous (human (endogenous in HCCLM3 and Huh7)) (UniProt Q9UPT9)
T1 sequence: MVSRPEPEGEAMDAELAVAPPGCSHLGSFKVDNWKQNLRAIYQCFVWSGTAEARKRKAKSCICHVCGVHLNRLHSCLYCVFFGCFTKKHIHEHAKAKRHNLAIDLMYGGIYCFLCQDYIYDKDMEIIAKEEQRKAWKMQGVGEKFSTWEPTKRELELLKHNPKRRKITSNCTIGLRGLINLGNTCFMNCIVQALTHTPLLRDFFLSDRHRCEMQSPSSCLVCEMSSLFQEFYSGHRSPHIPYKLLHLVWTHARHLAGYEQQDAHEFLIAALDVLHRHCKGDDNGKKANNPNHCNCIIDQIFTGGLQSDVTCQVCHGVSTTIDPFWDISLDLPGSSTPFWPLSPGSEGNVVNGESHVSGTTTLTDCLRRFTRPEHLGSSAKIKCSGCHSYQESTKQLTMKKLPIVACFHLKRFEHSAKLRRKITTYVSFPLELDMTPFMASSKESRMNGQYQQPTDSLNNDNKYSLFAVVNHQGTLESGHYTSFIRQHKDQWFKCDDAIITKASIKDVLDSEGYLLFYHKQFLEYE

T2: FLAG-USP22, full-length (FL) (human) (UniProt Q9UPT9)
T2 sequence: T1 sequence

B1: ZEB1, endogenous (protein, UniProt P37275 1-1124)
chain: MADGPRCKRRKQANPRRNNVTNYNTVVETNSDSDDEDKLHIVEEESVTDAADCEGVPEDDLPTDQTVLPGRSSEREGNAKNCWEDDRKEGQEILGPEAQADEAGCTVKDDECESDAENEQNHDPNVEEFLQQQDTAVIFPEAPEEDQRQGTPEASGHDENGTPDAFSQLLTCPYCDRGYKRFTSLKEHIKYRHEKNEDNFSCSLCSYTFAYRTQLERHMTSHKSGRDQRHVTQSGCNRKFKCTECGKAFKYKHHLKEHLRIHSGEKPYECPNCKKRFSHSGSYSSHISSKKCISLIPVNGRPRTGLKTSQCSSPSLSASPGSPTRPQIRQKIENKPLQEQLSVNQIKTEPVDYEFKPIVVASGINCSTPLQNGVFTGGGPLQATSSPQGMVQAVVLPTVGLVSPISINLSDIQNVLKVAVDGNVIRQVLENNQANLASKEQETINASPIQQGGHSVISAISLPLVDQDGTTKIIINYSLEQPSQLQVVPQNLKKENPVATNSCKSEKLPEDLTVKSEKDKSFEGGVNDSTCLLCDDCPGDINALPELKHYDLKQPTQPPPLPAAEAEKPESSVSSATGDGNLSPSQPPLKNLLSLLKAYYALNAQPSAEELSKIADSVNLPLDVVKKWFEKMQAGQISVQSSEPSSPEPGKVNIPAKNNDQPQSANANEPQDSTVNLQSPLKMTNSPVLPVGSTTNGSRSSTPSPSPLNLSSSRNTQGYLYTAEGAQEEPQVEPLDLSLPKQQGELLERSTITSVYQNSVYSVQEEPLNLSCAKKEPQKDSCVTDSEPVVNVIPPSANPINIAIPTVTAQLPTIVAIADQNSVPCLRALAANKQTILIPQVAYTYSTTVSPAVQEPPLKVIQPNGNQDERQDTSSEGVSNVEDQNDSDSTPPKKKMRKTENGMYACDLCDKIFQKSSSLLRHKYEHTGKRPHECGICKKAFKHKHHLIEHMRLHSGEKPYQCDKCGKRFSHSGSYSQHMNHRYSYCKREAEERDSTEQEEAGPEILSNEHVGARASPSQGDSDERESLTREEDEDSEKEEEEEDKEMEELQEEKECEKPQGDEEEEEEEEEVEEEEVEEAENEGEEAKTEGLMKDDRAESQASSLGQKVGESSEQVSEEKTNEA
B2: ZEB1, expressed from plasmid in HEK293 cells (protein, UniProt P37275 1-1124)
chain: B1 chain

Key:
[1] = biological target: T1, Ubiquitin specific protease 22 (USP22), endogenous (human (endogenous in HCCLM3 and Huh7)); assay: co-IP; endogenous proteins; whole cell lysates of HCCLM3 and Huh7 cells immunoprecipitated with USP22 antibody or IgG, Protein G Sepharose 4 Fast Flow, western blotting
[2] = biological target: T2, FLAG-USP22, full-length (FL) (human); assay: co-IP; HEK293 cells transfected with expression plasmids of ZEB1 and USP22 (full length or truncated mutants) or vector for 24 h; whole cell lysates

binding [1]	binding [2]	Binder
binds		B1
	binds	B2

Source: paper PMC10008583
